The list shows a part of the results. Residues, ends and D or L forms follow the SMILES beside them. *: point of attachment. Cbz = O=C(OCc1ccccc1)*
Key:
Experiment in all cases: log2 fold change, soluble protein after heating vs DMSO (PISA); higher = thermal stabilisation; K562 cells, 10 uM, 30 min; active = over 0.2 and 3.5 SD of the protein, either way, in both replicates (recomputed)
IRAK-1-4 Inhibitor I = compound: C1COCCN1CCN2C3=CC=CC=C3N=C2NC(=O)C4=CC(=CC=C4)[N+](=O)[O-] [IRAK-1-4 Inhibitor I]
Summary of the method: (§1)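 For each measurement, 10 μM compound was applied for 30 min to K562 cells at 2×10^6 cells/mL. Aliquots were heated for 3 min across 48°C-58°C, pooled, and extracted in PBS with 0.5% NP-40 at 4°C; the supernatant after 21,000xg for 90 min was soluble protein. This was quantified by TMTpro 16plex LC-MS/MS with channel sums equalised, and thermal stability was reported relative to control samples from duplicates, on a log2 fold-change scale.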

By UniProt entry, the sequences of proteins in these tests, tags left out. Where a name states a change or a piece, a line headed by the entry shows the natural chain unless it says otherwise.
UniProt P22105: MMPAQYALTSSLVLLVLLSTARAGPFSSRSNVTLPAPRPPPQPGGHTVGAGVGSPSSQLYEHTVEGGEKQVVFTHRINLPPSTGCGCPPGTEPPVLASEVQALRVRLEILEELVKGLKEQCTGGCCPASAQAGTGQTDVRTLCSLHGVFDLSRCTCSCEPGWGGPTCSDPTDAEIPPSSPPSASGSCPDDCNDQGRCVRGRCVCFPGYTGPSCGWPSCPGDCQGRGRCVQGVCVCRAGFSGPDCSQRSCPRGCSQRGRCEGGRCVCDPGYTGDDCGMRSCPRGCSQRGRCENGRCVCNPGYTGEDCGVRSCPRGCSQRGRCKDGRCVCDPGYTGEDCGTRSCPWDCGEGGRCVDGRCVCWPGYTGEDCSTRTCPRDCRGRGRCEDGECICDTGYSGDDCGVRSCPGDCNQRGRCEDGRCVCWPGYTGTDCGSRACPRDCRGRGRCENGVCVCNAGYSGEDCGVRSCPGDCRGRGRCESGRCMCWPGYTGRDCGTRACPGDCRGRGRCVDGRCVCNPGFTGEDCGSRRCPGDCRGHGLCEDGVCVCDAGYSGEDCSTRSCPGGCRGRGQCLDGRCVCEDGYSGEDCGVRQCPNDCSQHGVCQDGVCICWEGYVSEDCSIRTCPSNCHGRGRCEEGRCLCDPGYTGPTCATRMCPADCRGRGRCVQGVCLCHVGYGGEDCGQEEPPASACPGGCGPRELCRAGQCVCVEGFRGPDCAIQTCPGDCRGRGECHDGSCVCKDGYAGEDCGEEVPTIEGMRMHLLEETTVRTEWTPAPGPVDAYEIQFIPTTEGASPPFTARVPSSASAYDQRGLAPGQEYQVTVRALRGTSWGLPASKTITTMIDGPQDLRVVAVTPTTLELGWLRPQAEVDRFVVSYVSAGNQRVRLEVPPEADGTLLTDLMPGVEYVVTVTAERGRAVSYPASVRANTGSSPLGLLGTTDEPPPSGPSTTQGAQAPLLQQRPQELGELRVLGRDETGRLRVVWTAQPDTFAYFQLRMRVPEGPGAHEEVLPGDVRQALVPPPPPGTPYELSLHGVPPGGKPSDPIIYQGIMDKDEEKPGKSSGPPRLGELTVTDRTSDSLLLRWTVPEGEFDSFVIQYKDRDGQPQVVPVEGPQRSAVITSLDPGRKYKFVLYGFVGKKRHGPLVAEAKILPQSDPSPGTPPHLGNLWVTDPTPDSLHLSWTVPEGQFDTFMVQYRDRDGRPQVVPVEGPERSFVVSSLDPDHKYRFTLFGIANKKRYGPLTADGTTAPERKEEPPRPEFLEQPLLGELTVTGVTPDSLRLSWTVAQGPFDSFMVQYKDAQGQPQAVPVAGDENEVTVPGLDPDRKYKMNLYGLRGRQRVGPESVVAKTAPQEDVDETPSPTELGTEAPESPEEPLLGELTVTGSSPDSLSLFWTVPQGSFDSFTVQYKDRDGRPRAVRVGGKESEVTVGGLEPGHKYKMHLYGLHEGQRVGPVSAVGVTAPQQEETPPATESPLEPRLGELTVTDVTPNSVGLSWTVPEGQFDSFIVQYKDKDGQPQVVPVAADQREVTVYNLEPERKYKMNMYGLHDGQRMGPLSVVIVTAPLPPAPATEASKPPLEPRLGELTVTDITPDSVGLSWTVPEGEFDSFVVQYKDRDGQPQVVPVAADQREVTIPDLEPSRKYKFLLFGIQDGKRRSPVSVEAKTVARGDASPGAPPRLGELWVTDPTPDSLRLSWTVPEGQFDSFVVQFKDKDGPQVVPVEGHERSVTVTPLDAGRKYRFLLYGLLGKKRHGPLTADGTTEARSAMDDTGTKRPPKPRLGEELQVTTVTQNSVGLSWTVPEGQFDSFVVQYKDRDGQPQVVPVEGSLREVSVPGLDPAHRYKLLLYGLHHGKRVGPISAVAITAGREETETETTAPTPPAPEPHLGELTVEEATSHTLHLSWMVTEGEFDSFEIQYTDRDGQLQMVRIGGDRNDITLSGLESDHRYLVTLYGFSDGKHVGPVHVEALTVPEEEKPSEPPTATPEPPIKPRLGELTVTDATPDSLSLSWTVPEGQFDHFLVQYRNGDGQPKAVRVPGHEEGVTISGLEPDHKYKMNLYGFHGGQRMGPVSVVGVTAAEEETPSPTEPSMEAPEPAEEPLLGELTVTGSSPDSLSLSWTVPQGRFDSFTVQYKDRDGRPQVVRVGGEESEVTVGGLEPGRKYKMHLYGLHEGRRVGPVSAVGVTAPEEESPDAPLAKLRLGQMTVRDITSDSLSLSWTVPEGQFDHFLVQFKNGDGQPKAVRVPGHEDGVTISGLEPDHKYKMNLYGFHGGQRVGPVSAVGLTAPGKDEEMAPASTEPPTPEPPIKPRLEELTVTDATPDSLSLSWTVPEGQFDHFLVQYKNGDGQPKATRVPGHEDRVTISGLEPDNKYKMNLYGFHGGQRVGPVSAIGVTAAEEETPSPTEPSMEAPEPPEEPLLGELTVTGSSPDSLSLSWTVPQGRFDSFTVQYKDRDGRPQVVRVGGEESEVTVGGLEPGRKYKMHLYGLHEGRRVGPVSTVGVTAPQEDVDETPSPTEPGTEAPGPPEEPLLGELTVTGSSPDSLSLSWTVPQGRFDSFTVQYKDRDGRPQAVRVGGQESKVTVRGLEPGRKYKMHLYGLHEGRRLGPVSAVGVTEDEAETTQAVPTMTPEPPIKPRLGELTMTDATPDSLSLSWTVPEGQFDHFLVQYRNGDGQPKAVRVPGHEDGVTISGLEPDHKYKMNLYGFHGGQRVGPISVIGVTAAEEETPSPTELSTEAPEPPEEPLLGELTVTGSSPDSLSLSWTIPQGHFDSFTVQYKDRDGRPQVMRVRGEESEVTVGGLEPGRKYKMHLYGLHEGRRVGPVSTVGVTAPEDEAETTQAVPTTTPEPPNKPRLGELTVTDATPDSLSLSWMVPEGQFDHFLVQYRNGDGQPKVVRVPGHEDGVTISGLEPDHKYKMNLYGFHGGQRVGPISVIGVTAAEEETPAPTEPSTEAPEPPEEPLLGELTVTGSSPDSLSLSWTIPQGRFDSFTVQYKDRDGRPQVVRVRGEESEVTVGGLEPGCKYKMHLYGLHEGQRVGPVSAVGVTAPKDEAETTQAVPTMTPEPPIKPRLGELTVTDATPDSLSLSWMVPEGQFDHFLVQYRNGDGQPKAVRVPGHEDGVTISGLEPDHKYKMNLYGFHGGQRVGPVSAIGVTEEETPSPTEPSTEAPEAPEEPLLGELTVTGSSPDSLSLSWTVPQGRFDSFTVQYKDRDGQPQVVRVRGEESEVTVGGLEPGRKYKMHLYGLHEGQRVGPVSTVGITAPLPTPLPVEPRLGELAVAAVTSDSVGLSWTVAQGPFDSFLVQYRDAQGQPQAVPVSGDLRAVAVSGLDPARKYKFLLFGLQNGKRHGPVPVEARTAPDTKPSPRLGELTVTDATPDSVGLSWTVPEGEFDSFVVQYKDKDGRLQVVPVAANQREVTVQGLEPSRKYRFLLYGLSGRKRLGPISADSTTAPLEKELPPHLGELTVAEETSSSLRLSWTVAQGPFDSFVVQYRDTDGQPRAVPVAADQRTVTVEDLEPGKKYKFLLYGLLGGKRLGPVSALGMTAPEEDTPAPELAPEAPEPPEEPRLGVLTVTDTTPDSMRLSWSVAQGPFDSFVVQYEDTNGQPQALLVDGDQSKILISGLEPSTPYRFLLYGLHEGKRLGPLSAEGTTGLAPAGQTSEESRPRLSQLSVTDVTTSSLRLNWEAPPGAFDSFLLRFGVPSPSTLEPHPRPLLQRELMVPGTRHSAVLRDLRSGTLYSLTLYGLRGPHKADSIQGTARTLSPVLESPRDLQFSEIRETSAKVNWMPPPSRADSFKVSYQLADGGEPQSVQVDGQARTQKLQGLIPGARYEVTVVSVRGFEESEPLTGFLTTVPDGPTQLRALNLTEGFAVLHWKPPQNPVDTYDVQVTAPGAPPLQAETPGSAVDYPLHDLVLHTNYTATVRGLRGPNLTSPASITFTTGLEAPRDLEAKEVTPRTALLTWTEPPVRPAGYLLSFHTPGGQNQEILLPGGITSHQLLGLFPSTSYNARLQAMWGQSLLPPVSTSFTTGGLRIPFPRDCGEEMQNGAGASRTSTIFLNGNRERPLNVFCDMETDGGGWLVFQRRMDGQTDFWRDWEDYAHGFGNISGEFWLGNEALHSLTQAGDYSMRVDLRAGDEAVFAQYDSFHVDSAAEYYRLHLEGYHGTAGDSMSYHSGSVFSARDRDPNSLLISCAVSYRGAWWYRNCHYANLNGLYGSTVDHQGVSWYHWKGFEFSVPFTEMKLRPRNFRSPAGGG
UniProt Q9UPN9: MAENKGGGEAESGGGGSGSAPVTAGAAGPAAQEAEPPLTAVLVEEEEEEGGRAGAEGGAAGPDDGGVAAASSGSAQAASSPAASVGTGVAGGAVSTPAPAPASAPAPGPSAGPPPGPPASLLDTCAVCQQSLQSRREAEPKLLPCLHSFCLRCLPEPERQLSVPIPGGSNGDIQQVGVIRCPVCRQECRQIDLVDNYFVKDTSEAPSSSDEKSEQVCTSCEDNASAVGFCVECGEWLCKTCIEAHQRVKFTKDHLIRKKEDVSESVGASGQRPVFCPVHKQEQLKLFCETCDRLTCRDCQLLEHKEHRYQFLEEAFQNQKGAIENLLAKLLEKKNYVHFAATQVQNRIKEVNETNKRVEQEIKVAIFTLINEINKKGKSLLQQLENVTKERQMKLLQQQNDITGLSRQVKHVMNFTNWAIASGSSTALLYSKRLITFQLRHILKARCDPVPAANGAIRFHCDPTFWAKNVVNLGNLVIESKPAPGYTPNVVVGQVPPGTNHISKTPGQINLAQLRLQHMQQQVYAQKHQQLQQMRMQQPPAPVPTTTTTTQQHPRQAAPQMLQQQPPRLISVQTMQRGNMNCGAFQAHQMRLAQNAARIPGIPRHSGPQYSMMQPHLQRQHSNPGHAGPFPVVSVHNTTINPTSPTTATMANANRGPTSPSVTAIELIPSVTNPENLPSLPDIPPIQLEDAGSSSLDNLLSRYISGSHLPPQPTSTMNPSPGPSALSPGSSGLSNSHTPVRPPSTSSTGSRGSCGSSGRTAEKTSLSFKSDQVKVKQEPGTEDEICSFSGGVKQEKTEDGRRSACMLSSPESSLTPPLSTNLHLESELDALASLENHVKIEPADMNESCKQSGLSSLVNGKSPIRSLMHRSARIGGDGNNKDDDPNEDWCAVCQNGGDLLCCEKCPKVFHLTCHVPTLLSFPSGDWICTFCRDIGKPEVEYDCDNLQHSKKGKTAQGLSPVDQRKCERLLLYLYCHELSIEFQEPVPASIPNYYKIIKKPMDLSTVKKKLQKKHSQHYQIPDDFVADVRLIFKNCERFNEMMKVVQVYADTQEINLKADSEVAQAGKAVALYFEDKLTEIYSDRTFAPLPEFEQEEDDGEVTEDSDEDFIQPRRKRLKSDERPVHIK
UniProt Q9P0U1: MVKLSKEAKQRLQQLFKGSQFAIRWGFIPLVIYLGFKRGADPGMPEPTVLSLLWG
UniProt Q92574: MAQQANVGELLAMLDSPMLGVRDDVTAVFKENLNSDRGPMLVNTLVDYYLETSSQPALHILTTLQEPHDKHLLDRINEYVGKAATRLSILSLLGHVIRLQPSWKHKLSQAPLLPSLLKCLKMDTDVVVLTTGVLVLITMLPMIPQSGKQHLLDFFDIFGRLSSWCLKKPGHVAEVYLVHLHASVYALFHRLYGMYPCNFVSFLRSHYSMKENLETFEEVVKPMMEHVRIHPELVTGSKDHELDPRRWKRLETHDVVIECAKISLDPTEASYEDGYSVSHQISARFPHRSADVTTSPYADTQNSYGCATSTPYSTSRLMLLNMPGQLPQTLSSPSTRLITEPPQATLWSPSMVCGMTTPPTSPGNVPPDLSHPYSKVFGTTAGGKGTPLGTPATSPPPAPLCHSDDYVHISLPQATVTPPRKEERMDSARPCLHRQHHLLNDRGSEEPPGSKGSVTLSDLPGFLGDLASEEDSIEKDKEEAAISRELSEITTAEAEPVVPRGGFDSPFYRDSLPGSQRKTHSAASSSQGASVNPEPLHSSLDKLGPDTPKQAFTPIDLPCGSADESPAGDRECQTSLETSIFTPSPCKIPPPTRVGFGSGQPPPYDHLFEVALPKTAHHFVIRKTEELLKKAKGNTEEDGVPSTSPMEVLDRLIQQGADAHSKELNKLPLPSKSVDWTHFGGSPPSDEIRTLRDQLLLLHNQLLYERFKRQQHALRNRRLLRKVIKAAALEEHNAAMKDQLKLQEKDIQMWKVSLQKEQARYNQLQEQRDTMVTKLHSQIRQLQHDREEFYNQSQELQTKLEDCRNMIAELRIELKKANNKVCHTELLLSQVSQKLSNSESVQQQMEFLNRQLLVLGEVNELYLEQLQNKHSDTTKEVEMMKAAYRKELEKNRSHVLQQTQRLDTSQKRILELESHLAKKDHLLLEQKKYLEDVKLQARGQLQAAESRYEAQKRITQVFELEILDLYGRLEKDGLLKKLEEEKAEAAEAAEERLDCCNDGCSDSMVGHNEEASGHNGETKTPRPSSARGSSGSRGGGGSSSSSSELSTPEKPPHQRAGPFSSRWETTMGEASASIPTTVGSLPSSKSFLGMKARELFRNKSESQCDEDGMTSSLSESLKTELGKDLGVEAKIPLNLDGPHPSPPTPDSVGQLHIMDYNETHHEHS

pinometostat = compound: CC(C)N(C[C@H]1O[C@@H](n2cnc3c(N)ncnc32)[C@H](O)[C@@H]1O)[C@H]1C[C@@H](CCc2nc3cc(C(C)(C)C)ccc3[nH]2)C1 [pinometostat]
Summary of the method: as §1

[1] = compound: C1=CC(=C(C=C1Cl)C2=NC3=NC=CN=C3C(=N2)NC4=CC=NC=C4)F
Summary of the method: as §1

[2] = compound: C1=CC2=NC=CN=C2C=C1/C=C/3\C(=O)NC(=O)S3
Summary of the method: as §1

[3] = compound: C1=CC=C(C=C1)C2=NC(=C(N2)C3=CC=NC=C3)C4=CC(=C(C=C4)Cl)O
Summary of the method: as §1

ibrutinib = compound: C=CC(=O)N1CCC[C@@H](n2nc(-c3ccc(Oc4ccccc4)cc3)c3c(N)ncnc32)C1 [ibrutinib]
Summary of the method: as §1

ralimetinib = compound: CC(C)(C)Cn1c(N)nc2ccc(-c3[nH]c(C(C)(C)C)nc3-c3ccc(F)cc3)nc21 [ralimetinib]
Summary of the method: as §1

[4] = compound: CC(C)(O)CC(=O)NCCn1ccc2ncnc(Nc3ccc(Oc4cccc(C(F)(F)F)c4)c(Cl)c3)c21
Summary of the method: as §1

[5] = compound: CC(C)C[C@@H](C=O)NC(=O)[C@H](CC(C)C)NC(=O)[C@H](CC(C)C)NC(=O)OCc1ccccc1
Summary of the method: as §1

erlotinib = compound: C#Cc1cccc(Nc2ncnc3cc(OCCOC)c(OCCOC)cc23)c1 [erlotinib]
Summary of the method: as §1

[6] = compound: C1=CC(=CC=C1C2=NC3=C(N2)C=C(C=C3)C(=O)N)OC4=CC=C(C=C4)Cl
Summary of the method: as §1

[7] = compound: C1CCN(C1)C(=O)NC2=CC=CC(=C2)NC3=NC=C(C(=N3)NCCC4=CN=CN4)Br
Summary of the method: as §1

[8] = compound: C1CN(CCC1(CC2=CC=C(C=C2)Cl)N)C3=NC=NC4=C3C=CN4
Summary of the method: as §1

[9] = compound: CC(C)C1=C2N=C(C=C(N2N=C1)NCC3=CC=CC=C3)NCCCCCCN
Summary of the method: as §1

[10] = compound: CC1=C(C(CC(=O)N1)C2=CC=C(C=C2)C(F)(F)F)C(=O)NC3=C(C=C4C(=C3)C=NN4)F
Summary of the method: as §1

[11] = compound: CC1=C(C2=C(C=C1)C(=O)C3=CC=CC=C3N2CCCN)C
Summary of the method: as §1

[12] = compound: C/C(=N\NC(=O)C1=CC(=CC=C1)S(=O)(=O)N2CCOCC2)/C3=C(C=CC(=C3)Cl)O
Summary of the method: as §1

[13] = compound: C1=CC2=C(C=CC(=C2)/C=C\3/C(=O)NC(=NCC4=CC=CS4)S3)N=C1
Summary of the method: as §1

[14] = compound: C1=CC=C2C(=C1)C3=NNC4=CC=CC(=C43)C2=O
Summary of the method: as §1

[15] = compound: CC(=O)c1cnc2ccc(-c3cc(Cl)c(O)c(Cl)c3)nc2c1N[C@H]1CC[C@H](CN(C)C)CC1
Summary of the method: as §1

Measured: log2 fold change

TNXB isoform 4 (UniProt P22105)
inactive: IRAK-1-4 Inhibitor I -0.037 | pinometostat -0.132

TROAP (UniProt Q12815)
inactive: [1] -0.066 | [2] 0.028 | [3] 0.131 | ibrutinib 0 | ralimetinib 0.408 | [4] -0.033 | [5] 0.189

TPRG1L (UniProt Q5T0D9)
inactive: erlotinib -0.05 | [1] 0.189 | [6] -0.004 | [3] 0.009 | [7] 0.013 | [8] -0.022 | ralimetinib 0.075 | [4] -0.105 | [9] -0.494 | [5] 0.331 | [10] 0.022 | [11] 0.036

TRPM4 (UniProt Q8TD43)
inactive: [1] -0.071 | [4] 0.201

TNIP1 (UniProt Q15025)
inactive: erlotinib -0.013 | [1] 0.302 | [6] -0.035 | [2] -0.045 | [3] -0.005 | [7] -0.084 | [8] 0 | ibrutinib 0.015 | ralimetinib 0.04 | [4] -0.084 | [9] 0.059 | [5] 0.024 | [11] -0.03

TRPS1 isoform 2 (UniProt Q9UHF7)
inactive: erlotinib 0.23 | [6] 0.003 | [9] -0.101

TRIM65 (UniProt Q6PJ69)
inactive: [3] 0.023 | IRAK-1-4 Inhibitor I -0.004 | ralimetinib 0.013 | [5] -0.01 | pinometostat 0.006

TRIM33 isoform 2 (UniProt Q9UPN9)
inactive: [1] -0.254 | [4] -0.144 | [10] 0.031

TOMM7 (UniProt Q9P0U1)
inactive: erlotinib -0.083 | [1] 0.166 | [6] 0.007 | [2] 0.038 | [3] -0.058 | [7] 0.006 | [8] 0.008 | IRAK-1-4 Inhibitor I 0.004 | ibrutinib 0.048 | ralimetinib 0.048 | [4] -0.068 | [9] -0.008 | [5] 0.068 | pinometostat -0.114 | [10] 0.016 | [11] 0.084

Taken from the entries so far (4 entries):
TNIP1 (UniProt Q15025)
inactive: erlotinib -0.013 | [1] 0.302 | [6] -0.035 | [2] -0.045 | [3] -0.005 | [7] -0.084 | [8] 0 | ibrutinib 0.015 | ralimetinib 0.04 | [4] -0.084 | [9] 0.059 | [5] 0.024 | [11] -0.03

TRPS1 isoform 2 (UniProt Q9UHF7)
inactive: erlotinib 0.23 | [6] 0.003 | [9] -0.101

TRIM65 (UniProt Q6PJ69)
inactive: [3] 0.023 | IRAK-1-4 Inhibitor I -0.004 | ralimetinib 0.013 | [5] -0.01 | pinometostat 0.006

TRIM33 isoform 2 (UniProt Q9UPN9)
inactive: [1] -0.254 | [4] -0.144 | [10] 0.031

The list continues:

TRAPPC6A isoform 2 (UniProt O75865)
inactive: erlotinib 0.02 | [6] 0.04 | [2] -0.415 | ibrutinib -0.047 | [9] -0.149 | [10] -0.029

TOR1AIP2 (UniProt Q9H496)
inactive: [1] 0.089 | [2] 0.181 | [3] -0.074 | ibrutinib -0.055 | ralimetinib -0.031 | [4] 0.088 | [5] 0.165 | [10] 0.042

TRAM2 (UniProt Q15035)
inactive: erlotinib 0.209 | [12] -0.024 | [6] -0.177 | [13] 0.091 | [2] 0.074 | [14] -0.061 | [7] 0.058 | [8] 0.124 | ibrutinib -0.165 | [15] -0.113 | [9] -0.251 | [11] 0.134

TRIM14 (UniProt Q14142)
inactive: [10] 0.019

TSC1 (UniProt Q92574)
inactive: erlotinib 0.206 | [12] 0.063 | [6] -0.11 | [13] 0.357 | [3] -0.152 | [14] 0.144 | [7] -0.072 | [8] -0.228 | IRAK-1-4 Inhibitor I 0.174 | [15] -0.314 | ralimetinib -0.04 | [9] 0.018 | [5] 0.009 | pinometostat 0.224 | [11] 0.112

TRIP12 isoform 3 (UniProt Q14669)
inactive: [1] -0.054 | [2] 0.083 | [3] -0.089 | [7] 0.208 | [8] -0.089 | IRAK-1-4 Inhibitor I -0.12 | ibrutinib -0.107 | ralimetinib -0.134 | [4] 0.171 | [5] 0.027 | pinometostat -0.151 | [10] 0.044 | [11] 0.063

TOM1 (UniProt O60784)
inactive: erlotinib 0.082 | [1] 0.193 | [6] -0.037 | [2] 0.186 | [7] 0.022 | [8] -0.097 | IRAK-1-4 Inhibitor I 0.058 | ibrutinib 0.093 | [4] -0.087 | [9] -0.22 | pinometostat -0.032 | [11] -0.236

— the supplement of paper PMC10849652
